Results from patent US20230100941A1, “MOLECULES TARGETING MUTANT RAS PROTEIN” (AELIN THERAPEUTICS, priority 2020, published 2023).
Results are given in words; binding and its absence hold for the method and conditions named. Binding seen in cells or lysates may run through a third protein. Some results given as binding are weak or reduced against the parent protein; the word gives no strength. Values belong to the binder of their own block, whether it stands above or below them.

Assays:
[1] = biological target: KRAS G12V expressed in RASless MEFs (human) (UniProt P01116); assay: co-immunoprecipitation: RASless MEFs treated with 25 µM biotinylated pept-in, streptavidin-coated beads, KRAS Western blot
[2] = biological target: KRAS G12V mutant, produced by in vitro translation (human) (UniProt P01116); assay: in vitro translation of KRAS with 10 µM biotinylated pept-in, streptavidin pull-down, KRAS Western blot
[3] = biological target: KRAS protein of NCI-H441 lung adenocarcinoma cells (KRAS G12V mutant) (human) (UniProt P01116); assay: co-immunoprecipitation: NCI-H441 cells treated with 25 µM biotinylated pept-in overnight, streptavidin-coated beads, KRAS Western blot
[4] = biological target: KRAS G12V expressed in RASless MEFs (human) (UniProt P01116); assay: co-immunoprecipitation from RASless MEFs, streptavidin beads, KRAS Western blot (FIG. 11 legend)
[5] = biological target: KRAS G12V mutant, produced by in vitro translation (human) (UniProt P01116); assay: in vitro translation of KRAS with biotinylated pept-in, streptavidin pull-down, KRAS Western blot (FIG. 6 legend)
[6] = biological target: KRAS protein of NCI-H441 lung adenocarcinoma cells (KRAS G12V mutant) (human) (UniProt P01116); assay: co-immunoprecipitation from NCI-H441 cells, streptavidin-coated beads, KRAS Western blot (FIG. 7 legend)
[7] = biological target: KRAS G12C mutant, produced by in vitro translation (human) (UniProt P01116); assay: in vitro translation of KRAS with 10 µM biotinylated pept-in, streptavidin pull-down, KRAS Western blot
[8] = biological target: KRAS G12C mutant, produced by in vitro translation (human) (UniProt P01116); assay: in vitro translation of KRAS with biotinylated pept-in, streptavidin pull-down, KRAS Western blot (FIG. 6 legend)

binding [1]: binds
binding [2]: binds
binding [3]: binds
binding [4]: binds
binding [5]: binds
binding [6]: binds
B1: 04-006-N007, biotinylated version of pept-in 04-006-N001 (peptide)
peptide: KVVVGAVKGSKVVVGAVK
modifications: N-terminally biotinylated; state of the C-terminus not stated for this version

binding [1]: binds
binding [7]: binds
binding [2]: binds
binding [3]: binds
binding [4]: binds
binding [8]: binds
binding [5]: binds
binding [6]: binds
B2: 04-015-N026, biotinylated version of pept-in 04-015-N001 (peptide)
peptide: KVVVGAVGKGSKVVVGAVGK
modifications: N-terminally biotinylated; state of the C-terminus not stated for this version

binding [1]: binds
binding [2]: binds
binding [3]: binds
binding [4]: binds
binding [5]: binds
binding [6]: binds
B3: 04-033-N003, biotinylated version of pept-in 04-033-N001 (peptide)
peptide: KVVVGAVGVGKGSKVVVGAVGVGK
modifications: N-terminally biotinylated; state of the C-terminus not stated for this version
